Assay results: PubChem BioAssay AID504467 (National Center for Advancing Translational Sciences (NCATS), 2011)
Hit rate of the full screen: of about 330,000 compounds, about 7,700 (2.3%) were called active. The shares of active, inactive and inconclusive entries below differ from those in the screen. Calls come from the whole dose curve; as a rule, active = well fitted inhibition curve with a large enough effect; inconclusive = small, poorly fitted or top-dose-only effect, or effect the other way; inactive = flat fitted curve, though single readings scatter. A potency beside an inconclusive call is a rough fit, not a confirmed value.

assay: qHTS screen for small molecules that inhibit ELG1-dependent DNA repair in human embryonic kidney (HEK293T) cells expressing luciferase-tagged ELG1; settings: HEK293T ELG1-luciferase reporter, luminescence, 16 h, DNA damage induced by 5-fluorouridine; activity change, negative = inhibition: at 46.1 µM (top of the series); note: nearly all actives have a fitted effect of over 55% in size
How it was run: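 Reporter activity after DNA damage by 5-fluorouridine is monitored. Compound-treated cells incubate 16 hr at 37 °C, then ONE-Glo is added for 30 min before luminescence reading.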
% is set by controls: 0 for no effect and ±100 for the full control effect; potency is the fitted concentration of half-maximal effect.

SMILES | Potency | activity change, negative = inhibition
O=C(NCc1ccccn1)c1cc(-c2ccccc2)nc2ccccc12 | inconclusive: 29.1 µM [inhibitor, single point] | –
Cc1ccc(S(=O)(=O)N2CCN(c3ccc(C(=O)N4CCOCC4)cc3[N+](=O)[O-])CC2)cc1 | active: 18.4 µM | –
CC(/C=C/c1ccco1)=N\NC(=O)c1cc(Cl)ccc1O | – | inactive: -15.5%
O=C(CSc1nnc(-c2ccccc2Br)o1)N1CCN(C(=O)c2ccco2)CC1 | inconclusive: 15.8 µM [inhibitor, single point] | –
O=C(/C=C/c1c(F)cccc1Cl)NCc1ccc2c(c1)OCO2 | – | inactive: -1.89%
CCOC(=O)c1ccc(NC(=O)c2cccc(S(=O)(=O)N3CCN(C(C)=O)CC3)c2)cc1 | inconclusive: 14.6 µM [inhibitor, partial curve, poor fit] | –
O=C(Nc1ccc(Cl)cc1Cl)c1cc2ccccc2o1 | inconclusive: 2.31 µM [activator, full curve] | –
Cc1cccc(-c2nnc(NC(=O)c3ccc(Cl)cc3)o2)c1 | – | inactive: -5.82%
Cc1c(S(=O)(=O)Nc2ccc(Br)cc2)c(=O)n(C)c(=O)n1C | – | inactive: -6.82%
CN(CC1CCOCC1)C(=O)c1ccc2nc(Cc3cccc(Cl)c3)oc2c1 | inconclusive: 29.1 µM [inhibitor, single point] | –
COc1cccc(NC(=O)Nc2ccccc2Br)c1 | inconclusive: 20.6 µM [activator, partial curve] | –
CCOC(=O)C(NCc1ccccc1OC)(NC(=O)CC)C(F)(F)F (centres undefined) | inconclusive: 0.731 µM [inhibitor, partial curve, poor fit] | –
Cc1n[nH]c(=S)n1/N=C/c1ccccc1OCc1ccc(Cl)cc1 | inconclusive: 20.6 µM [activator, partial curve] | –
CCOc1ccccc1NC(=O)NCCCCc1ccccc1 | – | inactive: -0.88%
Nc1nc(CSCCO)nc(Nc2ccccc2)n1 | – | inactive: 13.1%
COc1ccc(NS(=O)(=O)c2ccc3c(c2)Cc2ccccc2-3)cn1 | inconclusive: 23.1 µM [inhibitor, partial curve] | –
O=C(CSc1nnc(CNC(=O)c2cccc(C(F)(F)F)c2)o1)NC1CCCC1 | – | inactive: -0.23%
Cc1cc(C(=O)CN2c3cccc4cccc(c34)S2(=O)=O)c(C)n1C | inconclusive: 1.16 µM [inhibitor, single point] | –
COc1cc2c3nnc(-c4ccccc4)c-3cn(Cc3ccccc3F)c2cc1OC | – | inactive: -0.693%
Cc1ccc(C)c(N2CCN(S(=O)(=O)CC34CCC(CC3=O)C4(C)C)CC2)c1 (centres undefined) | inconclusive: 25.1 µM [inhibitor, single point] | –
CCOc1ccc(C(=O)NC2CCN(C(=S)Nc3ccccc3C)CC2)cc1 | inconclusive: 29.1 µM [activator, partial curve, poor fit] | –
Oc1ccc(Br)cc1/C=N/n1cnc2ccccc21 | inconclusive: 6.51 µM [activator, partial curve] | –

SMILES | Potency | activity change, negative = inhibition
CCSc1ccccc1C(=O)Nc1cc(OC)c(OC)c(OC)c1 | inconclusive: 23.1 µM [activator, partial curve] | –
CCNS(=O)(=O)c1ccc(CCC(=O)N2CCN(c3cccc(Cl)c3)CC2)cc1 | inconclusive: 20.6 µM [inhibitor, partial curve] | –
CCOC(=O)N1CCN(C(=O)/C=C/c2c(C)nn(-c3ccc(F)cc3)c2Cl)CC1 | inconclusive: 23.1 µM [inhibitor, partial curve] | –
C/C(=C\COc1ccc2ccc(=O)oc2c1)CC[C@@H](O)C(C)(C)O | inconclusive: 1.64 µM [activator, partial curve, poor fit] | –
Cc1cc(C)nc(Nc2ccc(C(=O)O)cc2)n1 | inconclusive: 7.31 µM [activator, partial curve] | –
O=C(CCNC(=O)c1ccc(Br)cc1)NCc1cccnc1 | – | inactive: 14.6%
Fc1ccc(Nc2nc(N/N=C/c3ccco3)nc(N3CCCCC3)n2)cc1 | inconclusive: 29.1 µM [inhibitor, single point] | –
CC(C)[C@H](NC(=O)N1c2ccccc2NC(=O)[C@@H]1C(C)C)C(=O)N[C@H](C(=O)O)c1ccccc1 | – | inactive: 22.4%
CC(=O)Nc1ccc(NC(=O)Cn2c(=O)n(-c3ccc(C)cc3)c(=O)c3oc4ccccc4c32)cc1 | inconclusive: 29.1 µM [inhibitor, single point] | –
COC(=O)C1(C(=O)OC)NOC2C(=O)N(c3ccc(Cl)cc3Cl)C(=O)C21 (centres undefined) | inconclusive: 20.6 µM [activator, partial curve, poor fit] | –
COC(=O)[C@]1(C)N[C@H](CN(C)C(=O)C2CCCCC2)[C@@H]2C(=O)N(Cc3ccccc3)C(=O)[C@@H]21 | – | inactive: 22.1%
O=C(NN=C1CCCCCC1)C(=O)Nc1cccc(Br)c1 | inconclusive: 10.3 µM [activator, partial curve] | –
O=C(Cc1nn[nH]n1)c1ccccc1O | – | inactive: -1.61%
O=C(NNC(=O)c1ccc(Cn2cccn2)o1)NC12CC3CC(CC(C3)C1)C2 | – | inactive: 8.44%
CCOc1ccccc1-n1c(=S)sc2c(=O)n(-c3ccccc3)c(=S)[nH]c21 | – | inactive: 9.51%
Nc1ncnc2c1ncn2[C@@H]1O[C@H](CNCc2c(OCc3ccccc3F)ccc3ccccc23)[C@@H](O)[C@H]1O | inconclusive: 16.4 µM [inhibitor, partial curve] | –
Cc1ccccc1C(=O)Nc1ccc(N2CCN(C(=O)c3ccco3)CC2)cc1 | – | inactive: -19.1%
COc1cc(OC)cc(-c2oc3cccnc3c2C#CCCO)c1 | inconclusive: 20.6 µM [inhibitor, single point] | –
Cc1cc(NC(=O)CSc2nnc(-c3ccc4c(c3)OCCO4)o2)no1 | inconclusive: 7.94 µM [activator, partial curve, poor fit] | –
O=C(Nc1ccc(N2CCOCC2)cc1Cl)C1CCN(C(=O)OCc2ccccc2)CC1 | inconclusive: 20.6 µM [inhibitor, single point] | –
C1=CC2c3ccccc3NC(c3ccncc3)C2C1 (centres undefined) | – | inactive: 2.96%
O=C(OCC(=O)N1CCCC1)c1ccc(O)cc1 | inconclusive: 7.3 µM [activator, partial curve, poor fit] | –

A second format for some results above:

| SMILES | Potency | activity change, negative = inhibition |
| --- | --- | --- |
| CCSc1ccccc1C(=O)Nc1cc(OC)c(OC)c(OC)c1 | inconclusive: 23.1 µM [activator, partial curve] | – |
| C/C(=C\COc1ccc2ccc(=O)oc2c1)CC[C@@H](O)C(C)(C)O | inconclusive: 1.64 µM [activator, partial curve, poor fit] | – |
| Cc1cc(C)nc(Nc2ccc(C(=O)O)cc2)n1 | inconclusive: 7.31 µM [activator, partial curve] | – |
| CC(=O)Nc1ccc(NC(=O)Cn2c(=O)n(-c3ccc(C)cc3)c(=O)c3oc4ccccc4c32)cc1 | inconclusive: 29.1 µM [inhibitor, single point] | – |
| COC(=O)C1(C(=O)OC)NOC2C(=O)N(c3ccc(Cl)cc3Cl)C(=O)C21 (centres undefined) | inconclusive: 20.6 µM [activator, partial curve, poor fit] | – |
| O=C(NN=C1CCCCCC1)C(=O)Nc1cccc(Br)c1 | inconclusive: 10.3 µM [activator, partial curve] | – |
| O=C(Cc1nn[nH]n1)c1ccccc1O | – | inactive: -1.61% |
| Nc1ncnc2c1ncn2[C@@H]1O[C@H](CNCc2c(OCc3ccccc3F)ccc3ccccc23)[C@@H](O)[C@H]1O | inconclusive: 16.4 µM [inhibitor, partial curve] | – |
| COc1cc(OC)cc(-c2oc3cccnc3c2C#CCCO)c1 | inconclusive: 20.6 µM [inhibitor, single point] | – |
| Cc1cc(NC(=O)CSc2nnc(-c3ccc4c(c3)OCCO4)o2)no1 | inconclusive: 7.94 µM [activator, partial curve, poor fit] | – |
| O=C(Nc1ccc(N2CCOCC2)cc1Cl)C1CCN(C(=O)OCc2ccccc2)CC1 | inconclusive: 20.6 µM [inhibitor, single point] | – |
| C1=CC2c3ccccc3NC(c3ccncc3)C2C1 (centres undefined) | – | inactive: 2.96% |
